Measurements: US20110262954A1, “SHUTTLE VECTOR BASED TRANSFORMATION SYSTEM FOR PYROCOCCUS FURIOSUS” (UNIVERSITAT REGENSBURG, priority 2010, published 2011)
For at least one compound, name, drawing or mass did not settle the structure.

Tested on: P. furiosus
Test: effect of simvastatin on the growth of P. furiosus
Assay type: cell-based, Pyrococcus furiosus

SMILES: CCC(C)(C)C(=O)O[C@H]1C[C@@H](C)C=C2C=C[C@H](C)[C@H](CC[C@@H]3C[C@@H](O)CC(=O)O3)[C@H]21 [simvastatin]
- duration of growth inhibition (½ SME-pyruvate medium, 5, 10, or 20 μM simvastatin, incubated at 95° C.): growth was inhibited for only one day
- duration of growth inhibition (½ SME-pyruvate medium, similar concentrations (5, 10, or 20 μM), incubation at 85° C.): prevented growth for three days
